Results published in the supplement of paper PMC10470496.
Where a name gives a salt, the structure may show the parent alone. This is one part of the list. Single values are uncertain, as repeats are few or missing.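 The strains were three CDC resistance-bank clinical C. auris isolates from clades III, IV and I, cultured in RPMI-1640 at 35°C. Growth was background-corrected OD600 versus vehicle-only wells on the same plate. A hit needed >50% inhibition in two or more strains plus a plate-corrected B-score exceeding 0.1.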

Legend:
Test in all cases: growth relative to vehicle control (OD600 ratio) (fraction); higher = less inhibition
Details in all cases: 24 h
C. auris AR-384 = system: C. auris AR-384
C. auris AR-386 = system: C. auris AR-386
C. auris AR-387 = system: C. auris AR-387

Compound	growth (C. auris AR-384; 1 µM)	growth (C. auris AR-384; 10 µM)	growth (C. auris AR-386; 1 µM)	growth (C. auris AR-386; 10 µM)	growth (C. auris AR-387; 1 µM)	growth (C. auris AR-387; 10 µM)
CCOC(=O)C1=C[C@]2(CC)CCCN3CCc4c(n1c1ccccc41)[C@@H]32 [Vinpocetine]	1.12	0.82	0.95	0.82	0.85	0.92
CNC1CCCN(c2c(F)cc3c(=O)c(C(=O)O)cn(C4CC4)c3c2OC)C1 (centres undefined) [Balofloxacin]	0.96	0.88	0.9	0.8	1.02	0.84
CC(=O)O[C@H]1C(=O)[C@@]2(C)[C@H]([C@H](OC(=O)c3ccccc3)[C@]3(O)C[C@H](OC(=O)[C@H](O)[C@@H](NC(=O)c4ccccc4)c4ccccc4)C(C)=C1C3(C)C)[C@]1(OC(C)=O)CO[C@@H]1C[C@@H]2O [Paclitaxel]	0.85	1.22	1.03	0.75	0.72	0.57
COc1cc(/C=C/C(=O)CC(=O)/C=C/c2ccc(O)c(OC)c2)ccc1O [Curcumin]	0.59	0.53	0.78	1.05	0.88	1.03
CC(=O)Oc1c(C)c(C)c2c(c1C)CCC(C)(CCC[C@H](C)CCC[C@H](C)CCCC(C)C)O2 (some centres undefined) [Vitamin E Acetate]	0.96	0.69	0.85	0.65	0.72	0.51
O=C(N[C@H](CO)[C@H](O)c1ccc([N+](=O)[O-])cc1)C(Cl)Cl [Chloramphenicol]	0.87	0.92	0.75	0.76	0.68	0.82
COc1ccccc1OCC(O)CN1CCN(CC(=O)Nc2c(C)cccc2C)CC1 (centres undefined) [Ranolazine]	0.64	0.72	0.71	0.82	0.82	0.74
O=C(CCCCCCNC(=O)c1cnc(N(c2ccccc2)c2ccccc2)nc1)NO [Ricolinostat (ACY-1215)]	0.78	0.76	1.07	0.75	0.87	0.79
Cc1cc(NC(=O)C2=C(O)c3ccccc3S(=O)(=O)N2C)no1 [Isoxicam]	1.19	0.85	1.07	0.75	0.65	0.66
O=c1[nH]cc(F)c(=O)[nH]1 [Fluorouracil (5-Fluoracil, 5-FU)]	0.94	1.05	1.32	1.24	1.02	0.91
CN1CCC(=C2c3ccccc3CCn3c(C=O)cnc32)CC1 [Alcaftadine]	0.9	0.8	0.88	0.61	0.68	0.69
CCN1CC(CCN2CCOCC2)C(c2ccccc2)(c2ccccc2)C1=O (centres undefined) [Doxapram HCl]	0.9	0.81	0.52	0.77	0.68	0.76
N#CC[C@H](C1CCCC1)n1cc(-c2ncnc3[nH]ccc23)cn1	1.09	0.88	0.77	1.08	0.91	0.95
Nc1ccc(O)c(C(=O)O)c1 [Mesalamine]	0.89	1.26	1.22	1.15	1.19	1.39
C=CCNC(N)=S [Allylthiourea]	1.03	0.68	0.8	0.92	0.73	1.02
CC(=O)OCC(COC(C)=O)OC(C)=O [Triacetin]	0.83	0.84	0.68	1	0.81	0.81
N[C@@H]1CN(c2c(F)cc3c(=O)c(C(=O)O)cn([C@@H]4C[C@@H]4F)c3c2Cl)CC12CC2 [Sitafloxacin Hydrate]	0.92	0.83	0.73	0.7	0.71	0.59
COC(=O)N[C@H](C(=O)N1CC2(CC2)C[C@H]1c1nc(-c2ccc3c(c2)C(F)(F)c2cc(-c4ccc5[nH]c([C@@H]6[C@H]7CC[C@H](C7)N6C(=O)[C@@H](NC(=O)OC)C(C)C)nc5c4)ccc2-3)c[nH]1)C(C)C [Ledipasvir (GS5885)]	0.95	0.79	0.8	0.73	0.79	0.86
CCN(CC)CCOC(=O)c1ccc(N)cc1 [Procaine]	0.84	0.97	1.04	0.76	1.17	0.89
O=C(Nc1c(Cl)cncc1Cl)c1ccc(OC(F)F)c(OCC2CC2)c1 [Roflumilast]	1.08	1.03	1.04	0.84	0.9	0.8
CC(CN1c2ccccc2Sc2ccccc21)N(C)C (centres undefined) [Promethazine HCl]	1.06	0.91	0.68	0.86	0.92	0.92
Cc1ccc(NC(=O)c2ccc(CN3CCN(C)CC3)cc2)cc1Nc1nccc(-c2cccnc2)n1 [Imatinib Mesylate (STI571)]	0.81	0.61	0.84	0.82	0.92	0.9

Compound	growth (C. auris AR-384; 1 µM)	growth (C. auris AR-384; 10 µM)	growth (C. auris AR-386; 1 µM)	growth (C. auris AR-386; 10 µM)	growth (C. auris AR-387; 1 µM)	growth (C. auris AR-387; 10 µM)
COc1ccc(-c2ccc3cc(C(=O)O)ccc3c2)cc1C12CC3CC(CC(C3)C1)C2 [Adapalene]	0.63	1.14	1.13	1.2	0.98	0.96
FC(F)(F)c1ccc(/C=C/c2nc(COc3ccc(CCCCn4ccnn4)cc3)co2)cc1 [Mubritinib (TAK 165)]	0.63	0.6	0.74	0.81	0.7	0.65
COC(=O)[C@@H]1[C@H]2C[C@H]3c4[nH]c5ccccc5c4CCN3C[C@@H]2CC[C@@H]1O [Yohimbine HCl]	0.93	1.25	1.13	1.42	1.36	1.49
Nc1ccccc1NC(=O)c1ccc(CNc2nccc(-c3cccnc3)n2)cc1 [Mocetinostat (MGCD0103)]	0.83	0.9	0.79	0.74	0.71	0.62
CC(=O)Oc1cc2c(s1)CCN(C(C(=O)C1CC1)c1ccccc1F)C2 (centres undefined) [Prasugrel]	0.65	0.89	0.63	0.85	0.7	0.79
CC(=O)NO [Acetohydroxamic acid]	1.12	1.05	1.04	1.16	0.88	1.06
N=C1CCCN1Cc1[nH]c(=O)[nH]c(=O)c1Cl [Tipiracil hydrochloride]	1.01	0.92	1.28	0.9	0.56	0.64
CCOC(N)=O [Urethane]	1.15	0.88	0.89	1.06	1.07	0.75
COc1ccc2cc(CCC(C)=O)ccc2c1 [Nabumetone]	0.97	0.82	0.93	0.86	0.8	0.9
O=c1cc[nH]c(=O)[nH]1 [Uracil]	0.94	0.72	0.93	0.85	0.72	1.03
O=C(Nc1ccccc1)OCC(CN1CCCCC1)OC(=O)Nc1ccccc1 (centres undefined) [Diperodon HCl]	0.87	0.73	0.77	0.63	0.63	0.6
NS(=O)(=O)c1cc2c(cc1Cl)NCNS2(=O)=O [Hydrochlorothiazide]	0.85	1.23	1.27	1.22	1.42	1.32
Cc1c(C)c2c(c(C)c1O)CC[C@@](C)(CCC[C@H](C)CCC[C@H](C)CCCC(C)C)O2 [Vitamin E]	1.25	0.92	0.9	0.77	0.78	0.77
CNCCC=C1c2ccccc2CCc2ccccc21 [Nortriptyline hydrochloride]	1.18	1.2	1.24	1.03	0.88	1.16
CC(C)C(=O)Oc1ccc(CO)cc1[C@H](CCN(C(C)C)C(C)C)c1ccccc1 [Fesoterodine Fumarate]	0.94	0.87	0.91	0.77	0.72	0.7
C[C@H](Oc1ccc(S(C)(=O)=O)cc1C(=O)N1CCN(c2ncc(C(F)(F)F)cc2F)CC1)C(F)(F)F [Bitopertin]	1.38	1.54	1.18	1.32	1.57	1.41
C[C@]1(c2nc3c(C(N)=O)cccc3[nH]2)CCCN1 [Veliparib (ABT-888)]	0.83	0.61	0.52	0.82	0.73	0.61
CO[C@H]1O[C@@H]2O[C@@]3(C)CC[C@H]4[C@H](C)CC[C@@H]([C@H]1C)[C@@]24OO3 [Artemether]	0.71	0.43	1.13	0.88	0.76	0.5
CN(C)CCC=C1c2ccccc2COc2ccccc21 [Doxepin HCl]	1.26	1.32	1.01	1.06	1.11	1.39
CCC(=O)O[C@]1(C(=O)SCF)[C@H](C)C[C@H]2[C@@H]3C[C@H](F)C4=CC(=O)C=C[C@]4(C)[C@@]3(F)[C@@H](O)C[C@@]21C [Fluticasone propionate]	0.97	0.92	0.7	0.68	0.61	0.77
Clc1ccc(C(Cn2ccnc2)OCc2c(Cl)cccc2Cl)c(Cl)c1 (centres undefined) [Isoconazole nitrate]	0.8	0.34	0.74	0.67	0.15	0.1
Nc1ccn([C@@H]2O[C@H](CO)[C@@H](O)[C@@H]2O)c(=O)n1 [Cytarabine]	0.78	1.01	0.87	0.97	0.7	1.18

Looked up by structure from the list above, 3 records:
Compound	growth (C. auris AR-384; 1 µM)	growth (C. auris AR-384; 10 µM)	growth (C. auris AR-386; 1 µM)	growth (C. auris AR-386; 10 µM)	growth (C. auris AR-387; 1 µM)	growth (C. auris AR-387; 10 µM)
O=C(N[C@H](CO)[C@H](O)c1ccc([N+](=O)[O-])cc1)C(Cl)Cl [Chloramphenicol]	0.87	0.92	0.75	0.76	0.68	0.82
COc1ccccc1OCC(O)CN1CCN(CC(=O)Nc2c(C)cccc2C)CC1 (centres undefined) [Ranolazine]	0.64	0.72	0.71	0.82	0.82	0.74
CC(=O)O[C@H]1C(=O)[C@@]2(C)[C@H]([C@H](OC(=O)c3ccccc3)[C@]3(O)C[C@H](OC(=O)[C@H](O)[C@@H](NC(=O)c4ccccc4)c4ccccc4)C(C)=C1C3(C)C)[C@]1(OC(C)=O)CO[C@@H]1C[C@@H]2O [Paclitaxel]	0.85	1.22	1.03	0.75	0.72	0.57
